# The supplement of paper PMC8728848
# The list shows a part of the results.
# Legend:
# Test in all cases: glycan array binding signal (z-score within array); higher = stronger binding
# Details in all cases: glycan notation: IUPAC condensed, linker removed
# [1] = target: Fuc(a1-2)Gal(b1-4)GlcNAc(b1-2)[Fuc(a1-2)Gal(b1-4)GlcNAc(b1-4)]Man(a1-3)[Fuc(a1-2)Gal(b1-4)GlcNAc(b1-2)Man(a1-6)]Man(b1-4)GlcNAc(b1-4)GlcNAc
# Summary of the method: (§1)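 Glycan array binding is given as a within-array Z-score, which can be read as non-binding when negative. The arrays, 3228 of them, came from the Consortium for Functional Glycomics database and were retained only where the protein sequence was available. Z-scores were averaged across arrays of the same protein sequence at different concentrations or buffers and across linkers.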
# [2] = target: Fuc(a1-2)Gal(b1-4)GlcNAc(b1-3)Gal(b1-4)GlcNAc
# Summary of the method: as §1
# [3] = target: Fuc(a1-2)Gal(b1-4)GlcNAc(b1-3)Gal(b1-4)GlcNAc(b1-2)Man(a1-3)[Fuc(a1-2)Gal(b1-4)GlcNAc(b1-3)Gal(b1-4)GlcNAc(b1-2)Man(a1-6)]Man(b1-4)GlcNAc(b1-4)GlcNAc
# Summary of the method: as §1
# [4] = target: Fuc(a1-2)Gal(b1-4)GlcNAc(b1-3)Gal(b1-4)GlcNAc(b1-3)Gal(b1-4)GlcNAc
# Summary of the method: as §1
# [5] = target: Fuc(a1-2)Gal(b1-4)GlcNAc(b1-3)GalNAc
# Summary of the method: as §1
# [6] = target: Fuc(a1-2)Gal(b1-4)GlcNAc(b1-3)[Fuc(a1-2)Gal(b1-4)GlcNAc(b1-6)]GalNAc
# Summary of the method: as §1
# [7] = target: Fuc(a1-2)Gal(b1-4)GlcNAc(b1-3)[Fuc(a1-3)[Gal(b1-4)]GlcNAc(b1-6)]Gal(b1-4)Glc
# Summary of the method: as §1
# [8] = target: Fuc(a1-2)Gal(b1-4)GlcNAc(b1-6)GalNAc
# Summary of the method: as §1
# [9] = target: Fuc(a1-2)Gal(b1-4)GlcNAc6S
# Summary of the method: as §1
# [10] = target: Fuc(a1-2)Gal(b1-4)[Fuc(a1-3)]GlcNAc
# Summary of the method: as §1
# [11] = target: Fuc(a1-2)Gal(b1-4)[Fuc(a1-3)]GlcNAc(b1-2)Man(a1-3)[Fuc(a1-2)Gal(b1-4)[Fuc(a1-3)]GlcNAc(b1-2)Man(a1-6)]Man(b1-4)GlcNAc(b1-4)GlcNAc
# Summary of the method: as §1
# [12] = target: Fuc(a1-2)Gal(b1-4)[Fuc(a1-3)]GlcNAc(b1-2)Man(a1-3)[Fuc(a1-2)Gal(b1-4)[Fuc(a1-3)]GlcNAc(b1-2)Man(a1-6)]Man(b1-4)GlcNAc(b1-4)[Fuc(a1-6)]GlcNAc
# Summary of the method: as §1
# [13] = target: Fuc(a1-2)Gal(b1-4)[Fuc(a1-3)]GlcNAc(b1-2)[Fuc(a1-2)Gal(b1-4)[Fuc(a1-3)]GlcNAc(b1-4)]Man(a1-3)[Fuc(a1-2)Gal(b1-4)[Fuc(a1-3)]GlcNAc(b1-2)Man(a1-6)]Man(b1-4)GlcNAc(b1-4)GlcNAc
# Summary of the method: as §1
# [14] = target: Fuc(a1-2)Gal(b1-4)[Fuc(a1-3)]GlcNAc(b1-3)Gal(b1-4)[Fuc(a1-3)]GlcNAc
# Summary of the method: as §1
# [15] = target: Fuc(a1-2)Gal(b1-4)[Fuc(a1-3)]GlcNAc(b1-3)Gal(b1-4)[Fuc(a1-3)]GlcNAc(b1-3)Gal(b1-4)[Fuc(a1-3)]GlcNAc
# Summary of the method: as §1
# [16] = target: Fuc(a1-2)Gal(b1-4)[Fuc(a1-3)]GlcNAc(b1-3)GalNAc
# Summary of the method: as §1
# [17] = target: Fuc(a1-2)Gal(b1-4)[Fuc(a1-3)]GlcNAc(b1-3)[Neu5Ac(a2-6)Gal(b1-4)GlcNAc(b1-6)]Gal(b1-4)Glc
# Summary of the method: as §1
# [18] = target: Fuc(a1-2)Gal3S(b1-4)GlcNAc
# Summary of the method: as §1
# [19] = target: Fuc(a1-2)Gal6S(b1-3)GlcNAc
# Summary of the method: as §1
# [20] = target: Fuc(a1-2)Gal6S(b1-3)GlcNAc6S
# Summary of the method: as §1
# Fuc(a1-2)Gal6S(b1-4)Glc = target: Fuc(a1-2)Gal6S(b1-4)Glc
# Summary of the method: as §1
# [21] = target: Fuc(a1-2)Gal6S(b1-4)Glc6S
# Summary of the method: as §1
binder,measurement,setting,value
"BabA (Helicobacter pylori), O52269_HELPY (protein) AEDDGFYMSAGYQIGEAAQMVKNTKGIQELSDNYENLSNLLTRYSTLNTLIKLSADPSAVNAARENLGASAKNLIGDTKNSPAYQAVLLAINAAVGFWNVVGYVTQCGGNANGQKSTSSTTIFNNEPGYRSTSITCSLNGHMPGYYGPMSIENFKKLNEAYQILQTALKNGLPALKENNGTVNVTYSYTCSGEGNDNCSLQTTGVTNQNNGTKTETQTIDGKSVTTTISSKVVDSQ",glycan array binding signal (z-score),[1],0.235
same,glycan array binding signal (z-score),[2],0.271
same,glycan array binding signal (z-score),[3],0.717
same,glycan array binding signal (z-score),[4],-0.631
same,glycan array binding signal (z-score),[5],-0.627
same,glycan array binding signal (z-score),[6],-0.691
same,glycan array binding signal (z-score),[7],-0.3
same,glycan array binding signal (z-score),[8],0.344
same,glycan array binding signal (z-score),[9],0.682
same,glycan array binding signal (z-score),[10],1.17
same,glycan array binding signal (z-score),[11],-1.18
same,glycan array binding signal (z-score),[12],0.862
same,glycan array binding signal (z-score),[13],0.98
same,glycan array binding signal (z-score),[14],-0.317
same,glycan array binding signal (z-score),[15],-0.502
same,glycan array binding signal (z-score),[16],0.299
same,glycan array binding signal (z-score),[17],-0.409
same,glycan array binding signal (z-score),[18],-0.373
same,glycan array binding signal (z-score),[19],-0.346
same,glycan array binding signal (z-score),[20],0.635
same,glycan array binding signal (z-score),Fuc(a1-2)Gal6S(b1-4)Glc,-0.218
same,glycan array binding signal (z-score),[21],0.093

# Part of the list above, tab-delimited:
binder	measurement	setting	value
BabA (Helicobacter pylori), O52269_HELPY (protein) AEDDGFYMSAGYQIGEAAQMVKNTKGIQELSDNYENLSNLLTRYSTLNTLIKLSADPSAVNAARENLGASAKNLIGDTKNSPAYQAVLLAINAAVGFWNVVGYVTQCGGNANGQKSTSSTTIFNNEPGYRSTSITCSLNGHMPGYYGPMSIENFKKLNEAYQILQTALKNGLPALKENNGTVNVTYSYTCSGEGNDNCSLQTTGVTNQNNGTKTETQTIDGKSVTTTISSKVVDSQ	glycan array binding signal (z-score)	[5]	-0.627
same	glycan array binding signal (z-score)	[6]	-0.691
